Assay [1] deals with Pf12p D1D2 (Plasmodium falciparum) (UniProt C6KSX1). Put plainly: SEC; 100 ug Pf12p or Pf12 incubated with Pf41 at 1:1 molar ratio for 1 h at RT; SD 200 3.2/300 in 20 mM HEPES pH 7.5, 150 mM NaCl; Pf12, Pf12p and Pf41 also run singly; fractions on SDS-PAGE; both purified. Background: SEC sorts molecules by how far they enter the pores of the column.
For assay [2], the target named is Pf41 D1D2 (Plasmodium falciparum) (UniProt Q8I1Y0). The description is as above.
Assay [3] deals with His-tagged Pf41 (Plasmodium falciparum) (UniProt Q8I1Y0). Put plainly: BLI; His-tagged Pf41 (10 or 20 ug/ml) loaded on Ni-NTA sensors; untagged Pf12 D1D2 or untagged Pf12p D1D2 in solution, 16-500 nM or 31-1000 nM; PBS pH 7.4, 0.1% BSA, 0.05% Tween-20, 25 C; 1:1 fit; both purified.

Amino acid sequences for entries named in this document (tags omitted). Residues count along the entry.
UniProt Q8I1Y0, residues 21-368: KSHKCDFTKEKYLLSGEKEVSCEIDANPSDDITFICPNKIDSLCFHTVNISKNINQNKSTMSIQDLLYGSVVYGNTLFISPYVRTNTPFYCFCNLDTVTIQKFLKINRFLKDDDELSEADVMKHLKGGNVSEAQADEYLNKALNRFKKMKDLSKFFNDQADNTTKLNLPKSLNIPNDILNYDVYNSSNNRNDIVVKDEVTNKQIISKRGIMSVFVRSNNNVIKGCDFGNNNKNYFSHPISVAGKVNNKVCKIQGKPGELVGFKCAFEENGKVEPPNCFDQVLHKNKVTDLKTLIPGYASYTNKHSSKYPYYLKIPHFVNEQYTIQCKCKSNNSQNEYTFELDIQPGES

These are yes or no findings as the source states them, for the method shown.

B1: Pf12p D1D2 (domain or fragment, UniProt C6KSX1 24-341)
chain: NGVCDFSSEGLSLLPEEKLDFSVSRNVDKLSDENNVRHCVHFSKGFEYLRFICPMRKDNYEGIEIRPVECFEYIHIEGREHKLSEILKGSLYEKSINDNIMTRDVFIPPTIYEDMFFECTCDNSLTFKNNMIGIRGIMKIHLKKNILYGCDFDHDEKLMKNKTAFTNFYDKQKILPLIGNNNNDDDNNDDDNNNDNNNNDNNNNNNNNNNNNNNNNNNNITCNVTIKKSQVYLGIICPDGYTLYPNDCFKNVIYDNNIIIPLKKIIPHDILYHQDKNKRITFASFTLNINENPPGFTCYCIKDQTNINNPLIVNFHFS
Regarding B1, the binding entry in assay [1] is on record as “no binding”; in assay [2], “no binding”; in assay [3], “no binding (tested: 500 nM)”.

(Values after article PMC7886318, “Nanobody generation and structural characterization of Plasmodium falciparum 6-cysteine protein Pf12p” (Biochemical Journal, 2021).)
